Laboratory results taken from the supplement of paper PMC12595434, “Development of retinoid nuclear receptor pathway antagonists through targeting aldehyde dehydrogenase 1A3” (iScience, 2025).
Some of the results follow. This is a noisy data set.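 Tm was set to 64 °C where no melting was found, and many curves are irregular.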

Protein sequences, listed by entry. Tags and fused reporters are not part of them.
UniProt Q13733, whole entry: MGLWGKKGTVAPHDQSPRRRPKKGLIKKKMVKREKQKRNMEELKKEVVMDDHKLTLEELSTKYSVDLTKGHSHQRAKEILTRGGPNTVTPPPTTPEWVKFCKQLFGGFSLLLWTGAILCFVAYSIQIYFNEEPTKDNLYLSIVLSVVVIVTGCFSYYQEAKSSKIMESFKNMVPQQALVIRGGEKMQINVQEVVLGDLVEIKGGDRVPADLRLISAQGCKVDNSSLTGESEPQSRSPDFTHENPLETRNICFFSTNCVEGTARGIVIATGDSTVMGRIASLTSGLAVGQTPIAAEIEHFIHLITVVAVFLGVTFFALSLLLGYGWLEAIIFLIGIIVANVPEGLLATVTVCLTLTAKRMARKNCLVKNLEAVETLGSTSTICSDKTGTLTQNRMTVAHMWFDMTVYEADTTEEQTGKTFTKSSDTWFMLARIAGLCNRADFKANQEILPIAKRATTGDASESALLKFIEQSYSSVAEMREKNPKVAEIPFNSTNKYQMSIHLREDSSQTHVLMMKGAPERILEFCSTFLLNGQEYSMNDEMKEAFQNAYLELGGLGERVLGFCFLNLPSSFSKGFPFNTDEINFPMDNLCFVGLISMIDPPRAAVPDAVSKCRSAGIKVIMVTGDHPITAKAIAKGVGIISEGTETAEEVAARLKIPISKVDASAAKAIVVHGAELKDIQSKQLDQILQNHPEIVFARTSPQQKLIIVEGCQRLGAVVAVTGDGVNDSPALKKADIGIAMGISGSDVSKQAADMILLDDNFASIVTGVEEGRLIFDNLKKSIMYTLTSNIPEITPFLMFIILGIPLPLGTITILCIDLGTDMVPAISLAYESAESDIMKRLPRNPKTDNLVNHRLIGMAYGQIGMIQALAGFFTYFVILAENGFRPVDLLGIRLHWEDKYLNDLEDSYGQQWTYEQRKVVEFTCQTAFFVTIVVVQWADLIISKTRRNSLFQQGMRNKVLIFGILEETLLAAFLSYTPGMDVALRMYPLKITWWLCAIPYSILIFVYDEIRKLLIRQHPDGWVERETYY

Biological target: UniProt Q13733
Test: melting temperature shift (DMSO Tm minus MBE1-treated Tm) in cellular thermal proteome profiling; higher = less thermal stabilization by MBE1 (negative = stabilized by MBE1)
Settings: A375

In the case of CCc1cnccc1C(=O)Nc1cc2c(cc1F)NC(=O)CC2, the melting temperature shift (MBE1 concentration: 100 nM) is reported as -1.08 °C and the melting temperature shift (MBE1 concentration: 1 uM) is reported as -0.726 °C.
